PubChem BioAssay AID686937, Drosophila RNAi Screening Center – 2013
In all, the deposit lists about 23,000 reagents; this is an unselected part of those with a known target gene and a result. 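Reduced-secretion tags in replicate 1 do not always agree with the z-scores; no criterion for assigning the tags was given.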 Reagents against one gene are numbered here. A plus sign joins genes that one reagent is predicted to hit. Further read-outs or replicates are left out here. Not stated in the record: the amount of reagent.

Screen: 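Knock-downs that reduce output of a secreted reporter enzyme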 (primary screen)
System: Drosophila S2 cells expressing secreted horseradish peroxidase
Reagents: long dsRNA against Drosophila genes
Duration: about 5.5 days (5 days dsRNA, then 12 h reporter induction)
Treatment: reporter expression induced after 5 days of dsRNA, read 12 h later; inducer not stated
Read-out: 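After 5 days of dsRNA and 12 h of reporter induction, medium peroxidase read by chemiluminescence and scored as per-plate z-score; higher values mean more reporter released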
Scale: z-score: higher = more reporter secreted into medium

Alh #1 showed z-score, replicate 1 = -5.21; phenotype, replicate 1 = reduced secretion. With knock-down of Alh #2, the screen gave z-score, replicate 1 = 0.36. With knock-down of Alh #3, the screen gave z-score, replicate 1 = 0.36. Against CG1394, the values are z-score, replicate 1 = -0.02. bigmax gave z-score, replicate 1 = 0.33. After knock-down of CG5162 the results were z-score, replicate 1 = 0.39.

Against CG15370 the deposit lists z-score, replicate 1 = 0.3. After knock-down of Gnf1, the screen gave z-score, replicate 1 = -0.69. Knock-down of tau resulted in: z-score, replicate 1 = -0.48. CG10433 showed z-score, replicate 1 = 0.16. fau #1 showed z-score, replicate 1 = -1.33. With knock-down of fau #2 the results were z-score, replicate 1 = 0.35.

With knock-down of fau #3, the record shows z-score, replicate 1 = 0.35. After knock-down of fau #4, the screen gave z-score, replicate 1 = 0.22. Depletion of fau #5 gave: z-score, replicate 1 = 0.27. With knock-down of fau #6, the record shows z-score, replicate 1 = -0.87. For CG5282, the entry reads z-score, replicate 1 = 0.35. Against Tbcc the deposit lists z-score, replicate 1 = 0.15.

Against TfIIFbeta #1, the entry reads z-score, replicate 1 = 0.3. After knock-down of TfIIFbeta #2, the record shows z-score, replicate 1 = -1.69; phenotype, replicate 1 = reduced secretion. CG7564 showed z-score, replicate 1 = 0.18. Against CG31743 + CG34313 #1, the values are z-score, replicate 1 = 0.13. Depletion of CG31743 + CG34313 #2 came out at: z-score, replicate 1 = 0.21. Against PpV the deposit lists z-score, replicate 1 = -0.13.

Depletion of eIF4G1 resulted in: z-score, replicate 1 = -1.31. Silencing of CtsK1 came out at: z-score, replicate 1 = 0.44. After knock-down of Slob #1 the results were z-score, replicate 1 = 0.47. Against Slob #2 the deposit lists z-score, replicate 1 = 0.23. Septin5 showed z-score, replicate 1 = 0.27. Against CG4511, the entry reads z-score, replicate 1 = 0.08.

Taken from above:
Slob #1, z-score, replicate 1: 0.47
fau #5, z-score, replicate 1 = 0.27
Value for eIF4G1 in “z-score, replicate 1”: -1.31
Value for TfIIFbeta #2 in “z-score, replicate 1”: -1.69
Value for fau #4 in “z-score, replicate 1”: 0.22
Value for Septin5 in “z-score, replicate 1”: 0.27

Next results follow.
Silencing of Hex-A came out at: z-score, replicate 1 = -0.01. Against Tsp3A, the entry reads z-score, replicate 1 = 0.18. CG33203 #1 gave z-score, replicate 1 = 0.29. CG33203 #2 scored z-score, replicate 1 = 0.26. After knock-down of CG33203 #3, the record shows z-score, replicate 1 = 0.29. Knock-down of Dredd gave: z-score, replicate 1 = 0.05.

After knock-down of CG11498, the record shows z-score, replicate 1 = -0.02. Depletion of CG32006 gave: z-score, replicate 1 = -0.58. CG43136 showed z-score, replicate 1 = 0.37. Knock-down of CG31997 came out at: z-score, replicate 1 = 0.59. Against GABPI, the entry reads z-score, replicate 1 = 0.31. Knock-down of CG9287 #1 resulted in: z-score, replicate 1 = -3.48.

CG9287 #2 gave z-score, replicate 1 = -0.01. For CG14195, the entry reads z-score, replicate 1 = 0.16. For Kap-alpha1, the entry reads z-score, replicate 1 = -0.11. Against Ssdp, the values are z-score, replicate 1 = 0.45. For Sema5c the deposit lists z-score, replicate 1 = 0.22. Silencing of CG11384 gave: z-score, replicate 1 = 0.33.

CG10063 gave z-score, replicate 1 = -0.45. Against CG31650, the values are z-score, replicate 1 = -0.96; phenotype, replicate 1 = reduced secretion. After knock-down of Kul the results were z-score, replicate 1 = 0.21.
